Data taken from US11401295B2, “Cyclic dinucleotide compound and uses thereof” (SHANGHAI JEMINCARE PHARMACEUTICALS CO., LTD., priority 2018, dated 2022).
The structures given here were assigned with low confidence; some may be wrong.

Chains of the proteins cited; added tags and fusions are not shown. Residues count along the entry.
UniProt Q86WV6, 140-379 limits assumed: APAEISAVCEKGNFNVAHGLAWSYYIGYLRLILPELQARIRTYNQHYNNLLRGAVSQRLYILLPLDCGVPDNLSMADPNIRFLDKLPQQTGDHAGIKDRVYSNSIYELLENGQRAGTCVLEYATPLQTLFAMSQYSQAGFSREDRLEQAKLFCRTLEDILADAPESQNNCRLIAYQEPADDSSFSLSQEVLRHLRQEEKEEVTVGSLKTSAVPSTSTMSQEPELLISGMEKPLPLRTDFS

Columns and labels:
[1] = target: human STING protein (C-terminal, wild-type, aa 140-379) (Homo sapiens (Human), UniProt Q86WV6); test: STING in vitro binding test (fluorescence polarization, FP assay); conditions: read-out: FP affinity test IC50; competition with 30 nM fluorescein-labeled c-di-GMP, 10 μM human STING protein; tested form: ammonium salt
[2] = test system: IRF3 pathway in THP1-Dual cells; test: THP1-Dual reporter gene activity assay (Lucia luciferase, QUANTI-Luc); conditions: 30 min treatment, 18 hours incubation, tested form: ammonium salt
[3] = test system: IRF3 pathway in RAW-Dual cells (RAW264.7); test: Raw-Dual reporter gene activity assay (luciferase, QUANTI-Luc); conditions: read-out: Raw, EC50, 30 min treatment, 18-24 hours incubation, tested form: ammonium salt

Row | SMILES | IC50 [1] | EC50 [2] | EC50 [3]
1 | [BH3-][P+]1(O)OC[C@H]2O[C@@H](n3cnc4c(N)ncnc43)[C@H](F)[C@@H]2OP(=O)(S)OC[C@H]2O[C@@H](n3cnc4c(N)ncnc43)[C@H](F)[C@@H]2O1 (single isomer, unassigned) [Compound 4A] | 2.76 µM | 3.06 µM | 
2 | [BH3-][P+]1(O)OC[C@H]2O[C@@H](n3cnc4c(N)ncnc43)[C@H](F)[C@@H]2OP(=O)(S)OC[C@H]2O[C@@H](n3cnc4c(N)ncnc43)[C@H](F)[C@@H]2O1 (single isomer, unassigned) [Compound 4B] | 2.26 µM | 3.68 µM | 2.6 µM
3 | [BH3-][P+]1(O)OC[C@H]2O[C@@H](n3cnc4c(N)ncnc43)[C@H](F)[C@@H]2OP(=O)(S)OC[C@H]2O[C@@H](n3cnc4c(N)ncnc43)[C@H](F)[C@@H]2O1 (single isomer, unassigned) [Compound 4C] | 1.44 µM | 10.2 µM | 6.3 µM
4 | [BH3-][P+]1(O)OC[C@H]2O[C@@H](n3cnc4c(N)ncnc43)[C@H](F)[C@@H]2OP(=O)(S)OC[C@H]2O[C@@H](n3cnc4c(N)ncnc43)[C@H](F)[C@@H]2O1 (single isomer, unassigned) [Compound 4D] | 2.86 µM | 48.2 µM | 21 µM
